Data as given in PubChem BioAssay AID1224826 (NIAID, 2016).

- Purpose: 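Knock-downs that raise or lower Tnf reporter signal after endotoxin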 (primary screen)
- Cells: RAW264.7 G9 macrophages from mouse bearing reporters for p65 (GFP) and the Tnf promoter (mCherry)
- Reagents: siRNA pool against mouse genes, 100 nM
- Timing: 16 h of LPS stimulation, after 2 days of siRNA transfection
- Conditions: bacterial lipopolysaccharide (Salmonella minnesota R595), 10 ng/ml
- Measured: 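Imaged Tnf reporter mCherry in nuclei, minus background, normalised per plate to the median and expressed as robust z-scores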
- Scale: Tnf reporter robust z-score: higher = stronger Tnf promoter reporter signal after LPS
- Call rule: 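Called active when robust z-score is at most -1.3, matching the median of the Tlr4 knock-down control, or over 3; control wells and wells with under 50 cells never active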
- Calls: active = Tnf reporter clearly lowered or raised; inactive = no clear change in Tnf reporter
The deposit covers about 17,000 reagents; below is an unselected part. About 1,110 of them (6.6%) were called active. 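Active means lowered or raised reporter signal; replicate intensities are raw and not normalised per plate.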 Not all columns of the deposit are shown.

| gene | Tnf reporter robust z-score | fewer than 50 cells in well | call |
| --- | --- | --- | --- |
| Vmn1r18 | 0.15 | enough cells in well | inactive |
| Notch1 | 0.03 | enough cells in well | inactive |
| Or4c35 | 2.62 | enough cells in well | inactive |
| Nmt2 | 1.66 | enough cells in well | inactive |
| Or9r7 | -0.21 | enough cells in well | inactive |
| Vmn1r48 | – | fewer than 50 cells per well; well left out of calls | inactive |
| Ube2dnl1 | 1.27 | enough cells in well | inactive |
| Btnl10 | -0.12 | enough cells in well | inactive |
| Lhfpl6 | -0.57 | enough cells in well | inactive |
| Erbb2 | -0.56 | enough cells in well | inactive |
| Dmbt1 | 2.2 | enough cells in well | inactive |
| Ndufa3 | -0.8 | enough cells in well | inactive |
| Edil3 | -0.45 | enough cells in well | inactive |
| Mapk15 | 0 | enough cells in well | inactive |
| Or12e1 | 0.18 | enough cells in well | inactive |
| A730027B03Rik (retired record) | 0.47 | enough cells in well | inactive |
| Or51e1 | -0.85 | enough cells in well | inactive |
| Emp1 | 0.77 | enough cells in well | inactive |
| Or8g20 | 0.95 | enough cells in well | inactive |
| Ce9 | 1.34 | enough cells in well | inactive |
| Bmper | -0.77 | enough cells in well | inactive |
| Bmp2 | -1.4 | enough cells in well | active |
| Nod2 | 0.98 | enough cells in well | inactive |
| Itgav | 0.91 | enough cells in well | inactive |
| Kin | -0.58 | enough cells in well | inactive |
| Ppm1m | – | fewer than 50 cells per well; well left out of calls | inactive |
| Iqcf3 | -0.18 | enough cells in well | inactive |
| Tro | -0.61 | enough cells in well | inactive |
| Plaat3 | -0.55 | enough cells in well | inactive |
| Pkd1l3 | -1.04 | enough cells in well | inactive |
| Dpysl4 | 1.38 | enough cells in well | inactive |
| Apeh | – | fewer than 50 cells per well; well left out of calls | inactive |
| Sipa1l3 | -0.99 | enough cells in well | inactive |
| Wscd2 | -1.08 | enough cells in well | inactive |
| Tcaf2 | -0.85 | enough cells in well | inactive |
| Socs6 | 0.61 | enough cells in well | inactive |
| Tsr2 | 2.54 | enough cells in well | inactive |
| Fzd1 | 0.24 | enough cells in well | inactive |
| Dr1 | 0.09 | enough cells in well | inactive |
| Gbp2b | 0 | enough cells in well | inactive |
| Lmbr1 | 1.19 | enough cells in well | inactive |
| Gm9801 | 1.9 | enough cells in well | inactive |
| Xcl1 | 0.01 | enough cells in well | inactive |
| Zfp128 | -0.51 | enough cells in well | inactive |
| Or2a51 | 2.2 | enough cells in well | inactive |
| Cd83 | -0.59 | enough cells in well | inactive |
| Mpo | 0.43 | enough cells in well | inactive |
| Or10d1 | 0.78 | enough cells in well | inactive |
| Hadhb | 1.57 | enough cells in well | inactive |
| Qtrt1 | 1 | enough cells in well | inactive |
| Reep5 | 0.35 | enough cells in well | inactive |
| Cuzd1 | -0.27 | enough cells in well | inactive |
| Tssc4 | -0.2 | enough cells in well | inactive |
| Aplf | – | fewer than 50 cells per well; well left out of calls | inactive |
| Pex13 | -1.09 | enough cells in well | inactive |
| Ms4a19 | -1.03 | enough cells in well | inactive |
| Gsdma | 0.53 | enough cells in well | inactive |
| Usp17lb | 2.37 | enough cells in well | inactive |
